Measured values from the supplement of paper PMC12819154, “High-throughput peptide-centric local stability assay extends protein–ligand identification to membrane proteins, tissues and bacteria” (Nature Structural & Molecular Biology, 2025).
This is one part of the list. Small differences around the control level are noise.

Chains of the proteins cited; added tags and fusions are not shown. Lines headed by an entry give the natural chain unless they say otherwise; changes in a name come on top.
UniProt Q6ZQE4: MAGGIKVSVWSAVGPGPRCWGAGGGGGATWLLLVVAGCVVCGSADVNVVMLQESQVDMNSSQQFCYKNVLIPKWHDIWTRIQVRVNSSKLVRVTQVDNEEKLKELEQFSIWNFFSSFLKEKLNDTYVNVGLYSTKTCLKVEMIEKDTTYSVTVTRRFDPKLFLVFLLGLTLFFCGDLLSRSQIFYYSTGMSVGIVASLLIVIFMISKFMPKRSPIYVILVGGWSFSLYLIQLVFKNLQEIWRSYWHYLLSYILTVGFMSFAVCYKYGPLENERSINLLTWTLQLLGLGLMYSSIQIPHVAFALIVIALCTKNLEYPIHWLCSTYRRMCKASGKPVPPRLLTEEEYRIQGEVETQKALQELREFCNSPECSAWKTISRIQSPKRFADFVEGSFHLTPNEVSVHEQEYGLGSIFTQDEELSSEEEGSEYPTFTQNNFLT
UniProt Q80U70: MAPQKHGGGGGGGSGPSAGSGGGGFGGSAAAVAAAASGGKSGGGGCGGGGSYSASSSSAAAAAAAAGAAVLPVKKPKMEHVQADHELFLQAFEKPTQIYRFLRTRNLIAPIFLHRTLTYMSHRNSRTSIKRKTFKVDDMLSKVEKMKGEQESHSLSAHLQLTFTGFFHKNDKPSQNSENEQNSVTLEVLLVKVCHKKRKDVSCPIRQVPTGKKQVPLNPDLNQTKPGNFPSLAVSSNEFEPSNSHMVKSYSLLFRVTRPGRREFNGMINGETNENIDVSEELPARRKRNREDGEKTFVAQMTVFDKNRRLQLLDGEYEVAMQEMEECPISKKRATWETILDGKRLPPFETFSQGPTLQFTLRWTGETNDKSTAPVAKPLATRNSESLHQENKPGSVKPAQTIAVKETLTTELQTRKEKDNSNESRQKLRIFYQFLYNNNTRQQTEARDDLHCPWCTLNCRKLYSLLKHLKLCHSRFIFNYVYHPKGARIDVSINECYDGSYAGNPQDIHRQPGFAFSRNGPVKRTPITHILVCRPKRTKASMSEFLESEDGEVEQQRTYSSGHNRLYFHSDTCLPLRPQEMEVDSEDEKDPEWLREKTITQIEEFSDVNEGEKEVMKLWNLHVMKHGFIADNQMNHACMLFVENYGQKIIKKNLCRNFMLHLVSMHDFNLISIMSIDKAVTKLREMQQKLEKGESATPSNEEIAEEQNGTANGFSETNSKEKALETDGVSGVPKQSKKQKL
UniProt Q6ZPY7: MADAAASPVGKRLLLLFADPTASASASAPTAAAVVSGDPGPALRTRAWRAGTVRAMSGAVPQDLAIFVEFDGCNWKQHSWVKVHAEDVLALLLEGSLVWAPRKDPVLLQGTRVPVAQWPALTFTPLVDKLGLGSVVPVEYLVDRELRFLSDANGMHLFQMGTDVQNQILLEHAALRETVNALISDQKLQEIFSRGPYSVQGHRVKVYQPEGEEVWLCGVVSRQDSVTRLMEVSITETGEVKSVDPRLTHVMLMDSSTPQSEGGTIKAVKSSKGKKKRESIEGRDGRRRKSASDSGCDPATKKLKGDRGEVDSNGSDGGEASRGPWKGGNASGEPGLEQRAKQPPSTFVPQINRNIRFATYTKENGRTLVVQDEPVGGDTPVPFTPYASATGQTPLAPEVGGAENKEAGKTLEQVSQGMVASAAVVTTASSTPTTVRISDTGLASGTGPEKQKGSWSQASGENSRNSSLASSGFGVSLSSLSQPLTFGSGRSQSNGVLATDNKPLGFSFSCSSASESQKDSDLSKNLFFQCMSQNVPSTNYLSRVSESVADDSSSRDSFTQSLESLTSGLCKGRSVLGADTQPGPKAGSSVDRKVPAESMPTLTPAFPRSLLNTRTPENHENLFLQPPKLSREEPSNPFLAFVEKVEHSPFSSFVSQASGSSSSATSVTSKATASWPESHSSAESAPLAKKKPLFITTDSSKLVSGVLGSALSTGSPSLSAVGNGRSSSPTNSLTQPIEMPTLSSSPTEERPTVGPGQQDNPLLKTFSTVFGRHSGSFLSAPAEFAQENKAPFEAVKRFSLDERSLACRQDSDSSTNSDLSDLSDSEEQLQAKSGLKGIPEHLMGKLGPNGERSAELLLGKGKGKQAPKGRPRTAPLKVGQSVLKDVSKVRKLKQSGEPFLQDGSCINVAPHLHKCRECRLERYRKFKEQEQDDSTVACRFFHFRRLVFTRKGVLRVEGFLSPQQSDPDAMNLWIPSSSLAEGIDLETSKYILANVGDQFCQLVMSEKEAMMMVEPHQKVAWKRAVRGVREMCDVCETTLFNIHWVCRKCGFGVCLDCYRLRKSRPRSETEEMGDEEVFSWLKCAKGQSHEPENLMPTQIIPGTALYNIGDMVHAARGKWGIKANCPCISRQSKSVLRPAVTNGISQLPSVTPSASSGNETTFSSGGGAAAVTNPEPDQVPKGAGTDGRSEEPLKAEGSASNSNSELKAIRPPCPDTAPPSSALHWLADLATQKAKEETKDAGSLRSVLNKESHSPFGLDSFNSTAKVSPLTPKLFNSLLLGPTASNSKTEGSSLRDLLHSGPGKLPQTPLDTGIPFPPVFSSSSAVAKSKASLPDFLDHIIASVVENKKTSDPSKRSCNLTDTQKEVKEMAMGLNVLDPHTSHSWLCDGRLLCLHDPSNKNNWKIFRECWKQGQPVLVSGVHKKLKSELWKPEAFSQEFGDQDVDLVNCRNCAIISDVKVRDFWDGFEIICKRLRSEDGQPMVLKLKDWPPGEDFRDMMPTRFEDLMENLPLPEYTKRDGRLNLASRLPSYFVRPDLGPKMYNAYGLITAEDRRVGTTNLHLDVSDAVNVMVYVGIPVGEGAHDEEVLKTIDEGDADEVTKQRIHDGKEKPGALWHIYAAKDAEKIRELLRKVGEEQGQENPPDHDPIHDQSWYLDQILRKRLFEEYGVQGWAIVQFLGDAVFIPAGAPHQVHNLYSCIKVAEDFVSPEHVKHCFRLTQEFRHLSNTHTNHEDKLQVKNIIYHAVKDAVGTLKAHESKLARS
UniProt Q78T81: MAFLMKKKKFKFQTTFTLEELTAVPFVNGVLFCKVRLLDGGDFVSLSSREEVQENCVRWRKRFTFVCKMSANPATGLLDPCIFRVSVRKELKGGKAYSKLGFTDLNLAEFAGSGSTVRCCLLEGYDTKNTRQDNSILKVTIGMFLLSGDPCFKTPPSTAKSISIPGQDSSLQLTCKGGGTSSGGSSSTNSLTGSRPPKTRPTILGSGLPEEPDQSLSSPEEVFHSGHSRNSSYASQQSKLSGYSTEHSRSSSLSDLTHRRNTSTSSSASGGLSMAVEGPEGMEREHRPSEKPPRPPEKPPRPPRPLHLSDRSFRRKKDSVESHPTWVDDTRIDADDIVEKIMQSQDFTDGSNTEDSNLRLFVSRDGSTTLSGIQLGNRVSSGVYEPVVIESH
UniProt Q7TSH2: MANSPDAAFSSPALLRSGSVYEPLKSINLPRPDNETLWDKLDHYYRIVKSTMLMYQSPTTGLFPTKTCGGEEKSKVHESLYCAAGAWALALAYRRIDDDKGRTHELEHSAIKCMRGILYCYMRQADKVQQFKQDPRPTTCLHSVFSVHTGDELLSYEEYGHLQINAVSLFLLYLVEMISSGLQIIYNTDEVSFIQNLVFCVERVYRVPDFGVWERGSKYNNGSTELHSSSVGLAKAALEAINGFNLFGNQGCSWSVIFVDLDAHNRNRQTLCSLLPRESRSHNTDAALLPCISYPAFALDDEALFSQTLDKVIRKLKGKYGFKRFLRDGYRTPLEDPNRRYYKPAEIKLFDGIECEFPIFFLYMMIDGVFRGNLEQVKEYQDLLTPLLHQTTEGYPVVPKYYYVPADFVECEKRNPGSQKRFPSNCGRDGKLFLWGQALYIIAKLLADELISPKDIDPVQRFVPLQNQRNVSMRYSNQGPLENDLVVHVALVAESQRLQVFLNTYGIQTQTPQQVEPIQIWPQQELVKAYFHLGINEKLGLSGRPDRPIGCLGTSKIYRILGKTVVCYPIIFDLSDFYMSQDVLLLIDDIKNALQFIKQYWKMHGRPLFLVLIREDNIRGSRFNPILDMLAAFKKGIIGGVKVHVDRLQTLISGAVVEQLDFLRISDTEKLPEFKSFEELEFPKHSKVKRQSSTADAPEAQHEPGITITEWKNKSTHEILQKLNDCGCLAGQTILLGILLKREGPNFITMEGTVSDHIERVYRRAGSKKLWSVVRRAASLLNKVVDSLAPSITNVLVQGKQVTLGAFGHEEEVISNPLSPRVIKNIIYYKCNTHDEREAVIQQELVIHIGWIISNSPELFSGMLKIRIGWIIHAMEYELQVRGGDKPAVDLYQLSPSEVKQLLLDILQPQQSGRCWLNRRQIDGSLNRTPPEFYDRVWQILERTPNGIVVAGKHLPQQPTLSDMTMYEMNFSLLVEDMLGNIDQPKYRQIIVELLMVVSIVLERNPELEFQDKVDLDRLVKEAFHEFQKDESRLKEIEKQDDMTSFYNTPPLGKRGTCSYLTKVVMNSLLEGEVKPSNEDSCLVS
UniProt Q80UY2: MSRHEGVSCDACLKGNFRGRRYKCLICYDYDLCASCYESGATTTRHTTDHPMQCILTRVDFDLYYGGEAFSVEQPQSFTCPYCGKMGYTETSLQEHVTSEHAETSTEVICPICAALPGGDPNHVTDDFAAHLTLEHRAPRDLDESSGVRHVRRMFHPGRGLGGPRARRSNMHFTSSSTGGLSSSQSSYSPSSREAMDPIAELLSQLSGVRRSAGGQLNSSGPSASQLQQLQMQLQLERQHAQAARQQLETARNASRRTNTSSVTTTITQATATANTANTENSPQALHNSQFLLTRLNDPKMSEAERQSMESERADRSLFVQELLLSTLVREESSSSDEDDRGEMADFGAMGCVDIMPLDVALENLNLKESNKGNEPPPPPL
UniProt Q78J03: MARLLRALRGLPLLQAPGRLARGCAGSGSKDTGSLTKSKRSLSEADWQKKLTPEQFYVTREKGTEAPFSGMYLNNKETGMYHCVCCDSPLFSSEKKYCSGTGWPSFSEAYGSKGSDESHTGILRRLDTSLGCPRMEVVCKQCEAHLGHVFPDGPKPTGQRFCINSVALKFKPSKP
UniProt Q6ZPR6: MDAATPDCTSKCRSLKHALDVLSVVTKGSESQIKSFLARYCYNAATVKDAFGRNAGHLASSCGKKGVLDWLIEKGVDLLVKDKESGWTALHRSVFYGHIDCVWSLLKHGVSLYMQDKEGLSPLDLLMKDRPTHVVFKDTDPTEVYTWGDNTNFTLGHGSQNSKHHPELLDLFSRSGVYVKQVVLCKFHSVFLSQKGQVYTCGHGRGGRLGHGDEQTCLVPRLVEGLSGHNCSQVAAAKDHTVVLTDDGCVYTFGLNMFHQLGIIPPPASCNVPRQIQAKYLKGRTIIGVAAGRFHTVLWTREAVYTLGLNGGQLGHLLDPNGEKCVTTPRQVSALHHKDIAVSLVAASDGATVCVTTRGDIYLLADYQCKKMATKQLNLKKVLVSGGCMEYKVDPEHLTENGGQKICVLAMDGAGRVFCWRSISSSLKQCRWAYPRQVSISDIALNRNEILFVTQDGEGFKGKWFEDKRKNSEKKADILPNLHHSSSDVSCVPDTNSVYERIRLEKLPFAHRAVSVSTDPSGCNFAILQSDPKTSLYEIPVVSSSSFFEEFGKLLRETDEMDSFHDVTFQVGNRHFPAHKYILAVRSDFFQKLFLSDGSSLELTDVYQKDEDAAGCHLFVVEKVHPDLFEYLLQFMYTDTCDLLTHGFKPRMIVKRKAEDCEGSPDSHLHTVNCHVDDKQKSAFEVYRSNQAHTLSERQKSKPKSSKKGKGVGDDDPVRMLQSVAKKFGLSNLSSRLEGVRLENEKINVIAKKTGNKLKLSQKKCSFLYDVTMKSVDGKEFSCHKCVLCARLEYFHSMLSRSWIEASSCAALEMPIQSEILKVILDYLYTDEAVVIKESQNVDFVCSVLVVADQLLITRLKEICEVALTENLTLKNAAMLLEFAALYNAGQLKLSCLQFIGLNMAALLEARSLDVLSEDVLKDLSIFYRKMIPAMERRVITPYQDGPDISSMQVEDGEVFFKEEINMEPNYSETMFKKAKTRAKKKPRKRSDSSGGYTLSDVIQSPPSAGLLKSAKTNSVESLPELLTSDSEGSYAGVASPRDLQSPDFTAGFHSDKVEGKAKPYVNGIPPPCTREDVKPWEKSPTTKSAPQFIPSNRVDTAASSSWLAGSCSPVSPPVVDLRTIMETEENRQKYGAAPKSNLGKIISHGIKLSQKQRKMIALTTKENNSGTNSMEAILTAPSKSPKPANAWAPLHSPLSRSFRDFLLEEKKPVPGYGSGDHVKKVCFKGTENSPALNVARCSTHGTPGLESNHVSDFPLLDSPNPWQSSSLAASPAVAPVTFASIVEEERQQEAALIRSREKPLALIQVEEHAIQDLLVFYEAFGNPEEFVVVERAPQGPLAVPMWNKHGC

These targets were tested with CN[C@@H]1C[C@H]2O[C@@](C)([C@@H]1OC)n1c3ccccc3c3c4c(c5c6ccccc6n2c5c31)C(=O)NC4 [staurosporine] (assay: log2 fold change of tryptic peptide abundance, ligand vs vehicle (limited proteolysis) (log2 ratio); higher = more trypsin-susceptible (destabilized)). Details: ligand concentration: 20 uM; sample: mouse liver crude lysate; replicate design: treated separately.

Target | log2 fold change
UniProt Q7TS72 (peptide sequence: KADGTCNTNFK, peptide start residue: 554) | 1.21
UniProt Q6ZQE4 (peptide sequence: IQGEVETQK, peptide start residue: 347) | -0.407
UniProt Q80U70 (peptide sequence: NSESLHQENKPGSVKPAQTIAVK, peptide start residue: 383) | 0.307
UniProt Q6ZPY7 (peptide sequence: ATASWPESHSSAESAPLAK, peptide start residue: 671) | -0.249
UniProt Q78T81 (peptide sequence: LSGYSTEHSR, peptide start residue: 240) | -0.199
UniProt Q7TSH2 (peptide sequence: AYFHLGINEK, peptide start residue: 529) | 0.959
UniProt Q80UY2 (peptide sequence: QSMESERADR, peptide start residue: 307) | -0.493
UniProt Q78J03 (peptide sequence: GSDESHTGILR, peptide start residue: 114) | -0.233
UniProt Q6ZPR6 (peptide sequence: KMIALTTK, peptide start residue: 1159) | 0.15

Some of the entries so far, as a markdown table:

| Target | log2 fold change |
| --- | --- |
| UniProt Q6ZQE4 (peptide sequence: IQGEVETQK, peptide start residue: 347) | -0.407 |
| UniProt Q80U70 (peptide sequence: NSESLHQENKPGSVKPAQTIAVK, peptide start residue: 383) | 0.307 |
